# According to the supplement of paper PMC8732350:
# “And” between values parts separate entries of the source, which are not always exact repeats. Equal values may be shown once. Where a name gives a salt, the structure may show the parent alone. ± gives the standard deviation of the averaged measurements. Some of the results follow. Repeats in this data set agree poorly, so a single value says little.
# Tested on: A549
# Assay: surface PD-L1 immunofluorescence intensity relative to IFN-gamma-only control (ratio); higher = more PD-L1 expression
# Conditions: 10 µM; exposure time 24 h; IFN-gamma 100 ng/mL
row,SMILES,surface PD-L1 immunofluorescence intensity
1,CC(C)c1cnn2c(NCc3ccccc3)cc(NCCCCCCN)nc12,1
2,CCc1nn(CCCN2CCN(c3cccc(Cl)c3)CC2)c(=O)n1CCOc1ccccc1 [Nefazodone hydrochloride],1.03
3,CCc1nn(CCCN2CCN(c3cccc(Cl)c3)CC2)c(=O)n1CCOc1ccccc1 [Nefazodone HCl],0.941
4,O=S(=O)(c1cccc2cnccc12)N1CCCNCC1 [Fasudil hydrochloride],1.02
5,O=S(=O)(c1cccc2cnccc12)N1CCCNCC1 [Fasudil HCl (HA-1077)],0.924
6,CCCCS(=N)(=O)CCC(N)C(=O)O (configuration not stated) [Buthionine sulfoximine],0.901
7,Cc1ccc(C(=O)c2cc(/C=C/C(=O)NO)n(C)c2)cc1,1.12
8,CCNC1(C(N)=O)CCN(c2ncnc3c2nc(-c2ccccc2Cl)n3-c2ccc(Cl)cc2)CC1,1.06
9,CCC(C)(C)C(=O)O[C@H]1C[C@@H](C)C=C2C=C[C@H](C)[C@H](CC[C@@H]3C[C@@H](O)CC(=O)O3)[C@H]21 [Simvastatin (Zocor)],1.11
10,CCC(C)(C)C(=O)O[C@H]1C[C@@H](C)C=C2C=C[C@H](C)[C@H](CC[C@@H]3C[C@@H](O)CC(=O)O3)[C@H]21 [Simvastatin],1.07 ± 0.11
11,CC(=O)Oc1ccc(C(c2ccc(OC(C)=O)cc2)c2ccccn2)cc1 [Bisacodyl],1.06
12,CCOC(=O)CC(=O)N1CCSC1COc1ccccc1OC (configuration not stated) [Moguisteine],1.01
13,N#CC[C@H](C1CCCC1)n1cc(-c2ncnc3[nH]ccc23)cn1,0.779
14,COc1cc(CNC(=O)CCCCCCC(C)C)ccc1O [Dihydrocapsaicin],0.999
15,CCCc1nn(C)c2c(=O)[nH]c(-c3cc(S(=O)(=O)N4CCN(C)CC4)ccc3OCC)nc12 [Sildenafil],1.12
16,CN(C[C@@H]1COCCO1)S(=O)(=O)Nc1ccc2ccc3ncc(-c4cnn(C)c4)cc3c(=O)c2c1,0.917
17,CN(C)CCc1c[nH]c2ccc(CS(=O)(=O)N3CCCC3)cc12 [Almotriptan malate (Axert)],1.18
18,Cn1nc(C(C)(C)C)cc1C(=O)N[C@@H](Cc1cccc(Cl)c1)C(=O)NCC#N [Cathepsin Inhibitor 1],0.942
19,CC1(COc2ccc(CC3SC(=O)NC3=O)cc2)CCCCC1 (configuration not stated) [Ciglitazone],1.04
20,CC(C)SC(=N)N [S-Isopropylisothiourea hydrobromide],0.96
21,O=C(Nc1ccccc1)N1CCN(c2nc(-c3ccccc3)ns2)CC1,1
22,O=C(O)CCC(=O)c1ccc(-c2ccccc2)cc1 [Fenbufen],0.994
23,CCS(=O)(=O)N(C)[C@H]1c2cc(C#N)ccc2OC(C)(C)[C@@H]1O (racemic) [Chromanol 293B],1.01
24,CN1CCN2c3ccccc3Cc3ccccc3C2C1 (configuration not stated) [Mianserine hydrochloride],0.966
25,CN1CCN2c3ccccc3Cc3ccccc3C2C1 (configuration not stated) [Mianserin hydrochloride],1.02
26,CCCCCCCCOc1ccccc1C(=O)Nc1ccc(C(=O)OCC[N+](C)(CC)CC)cc1 [Otilonium Bromide],1.01

# Five entries picked at random from those above:
row,SMILES,surface PD-L1 immunofluorescence intensity
1,CC(C)c1cnn2c(NCc3ccccc3)cc(NCCCCCCN)nc12,1
2,CCc1nn(CCCN2CCN(c3cccc(Cl)c3)CC2)c(=O)n1CCOc1ccccc1 [Nefazodone hydrochloride],1.03
25,CN1CCN2c3ccccc3Cc3ccccc3C2C1 (configuration not stated) [Mianserin hydrochloride],1.02
4,O=S(=O)(c1cccc2cnccc12)N1CCCNCC1 [Fasudil hydrochloride],1.02
7,Cc1ccc(C(=O)c2cc(/C=C/C(=O)NO)n(C)c2)cc1,1.12

# (listing goes on)

row,SMILES,surface PD-L1 immunofluorescence intensity
1,N[C@@H](Cc1ccc(O)c(O)c1)C(=O)O [Levodopa],0.89
2,CC(=O)N(C/C=C(\C)CCC=C(C)C)[C@@H](CS)C(=O)O [AGC (Acetyl-geranyl-cysteine)],1.03
3,CCOC(=O)C1=C(C)NC(C)=C(C(=O)OC)C1c1cccc(Cl)c1Cl (configuration not stated) [Felodipine],1.02
4,C[C@H](CCC(=O)O)[C@H]1CC[C@H]2[C@@H]3C(=O)C[C@@H]4CC(=O)CC[C@]4(C)[C@H]3CC(=O)[C@]12C [Dehydrocholic acid],0.973
5,Cc1oc(S(=O)(=O)N2CCCCC2)cc1NC(=O)Nc1ccccc1,1.02
6,Cc1nc2sccn2c(=O)c1CCN1CCC(=C(c2ccc(F)cc2)c2ccc(F)cc2)CC1 [Ritanserin],1.07
7,O=C(NC(Cc1cc(=O)[nH]c2ccccc12)C(=O)O)c1ccc(Cl)cc1 (configuration not stated) [Rebamipide],0.96
8,CCN1C(=O)C=CC1=O [N-Ethylmaleimide],0.928
9,CC(C)c1cc(C(C)C)c(CC(=O)NS(=O)(=O)Oc2c(C(C)C)cccc2C(C)C)c(C(C)C)c1 [Avasimibe (CI-1011)],1.08
10,CC(C)(C)NC[C@H](O)COc1cccc2c1CCCC2=O [(-) -Levobunolol hydrochloride],0.914
11,C[N+](C)(C)CCOC(N)=O [Carbachol],1.06
12,COc1ccc(-c2oc3cc(OC)ccc3c2C(=O)c2ccc(C#N)cc2)cc1,0.952
13,C=CCNc1ncnc2ccc(Br)cc12,1.01
14,OCC(CO)N[C@H]1C[C@](O)(CO)[C@@H](O)[C@H](O)[C@H]1O [Voglibose],1.05
15,Cc1ccc(Nc2nccc(N(C)c3ccc4c(C)n(C)nc4c3)n2)cc1S(N)(=O)=O [Pazopanib],1.08
16,CC(=Nc1ccccc1N)c1c(C)cc(=O)n(O)c1O,1.02
17,CCc1ccc(/C=C2/SC(=S)NC2=O)cc1,0.931
18,CCN(CC)CCNC(=O)c1cc(Br)c(N)cc1OC [Bromopride],1.06
19,CCCCC(=O)N(Cc1ccc(-c2ccccc2-c2nnn[nH]2)cc1)[C@H](C(=O)O)C(C)C [Valsartan (Diovan)],0.899
20,OC(CCN1CCCCC1)(c1ccccc1)c1ccccc1 [Pridinol methanesulfonate salt],0.962
21,CC(=O)[C@H]1[C@H](C#N)C[C@H]2[C@@H]3CC=C4C[C@@H](O)CC[C@]4(C)[C@H]3CC[C@@]21C [Pregnenolone-16(alpha)-carbonitrile],1
22,O=c1cc(N2CCOCC2)oc2c(-c3ccccc3)cccc12,0.927 and 0.888
23,O=C(O)c1cc(=O)c2ccccc2[nH]1 [Kynurenic acid],1.05
24,"Cc1c(C(=O)Nc2ccc(N3C[C@@H](C)O[C@@H](C)C3)nc2)cccc1-c1ccc(OC(F)(F)F)cc1 [LDE225 (NVP-LDE225, Erismodegib)]",1.12
25,CC(C)NNC(=O)c1ccncc1 [Iproniazide phosphate],0.955
26,Cc1ccc(Sc2cncc3sc(C(N)=O)cc23)cc1,0.943

row,SMILES,surface PD-L1 immunofluorescence intensity
1,CC(C)c1nc(CN(C)C(=O)N[C@@H](CCN2CCOCC2)C(=O)N[C@H](CC[C@H](Cc2ccccc2)NC(=O)OCc2cncs2)Cc2ccccc2)cs1 [Cobicistat (GS-9350)],0.994
2,C#C[C@]1(O)CC[C@H]2[C@@H]3CCC4=Cc5oncc5C[C@]4(C)[C@H]3CC[C@@]21C [Danazol],0.949
3,Cc1cccc(-c2nn3c(c2-c2ccnc4ccc(C(N)=O)cc24)CCC3)n1,1.05
4,O=C(Nc1cccnc1)N1CCC(Cc2cccc(Oc3ccc(C(F)(F)F)cn3)c2)CC1,1.05
5,O=C(Nc1ccc([N+](=O)[O-])cc1Cl)c1cc(Cl)ccc1O [Niclosamide],0.9
6,CCOc1ccc(Cc2nccc3cc(OCC)c(OCC)cc23)cc1OCC [Ethaverine hydrochloride],0.984
7,Cc1cc(C)nc(NS(=O)(=O)c2ccc(NC(=S)NC(=O)COc3ccc(Br)cc3Cl)cc2)n1,1.02
8,"N[C@@H](Cc1cc(I)c(O)c(I)c1)C(=O)O [3,5-Diiodo-L-tyrosine]",1.07
9,CN1C(C(=O)Nc2ccccn2)=C(O)c2sc(Cl)cc2S1(=O)=O [Lornoxicam (Xefo)],1.11
10,CC12CC3CC(C)(C1)CC(N)(C3)C2 [Memantine Hydrochloride],1.01
11,CC12CC3CC(C)(C1)CC(N)(C3)C2 [Memantine hydrochloride],0.913
12,COc1ccc(-c2cc(=O)c3c(OC)c(OC)c(OC)c(OC)c3o2)cc1 [Tangeretin (Tangeritin)],1.09
13,CCO/C(O)=C1\C(C)=NC(c2ccccc2)=C(C(=O)OCc2ccc([N+](=O)[O-])cc2)C1C#Cc1ccccc1 (configuration not stated),0.976
14,O=C(O)c1ccc(C=C2SC(=S)N(c3cccc(C(F)(F)F)c3)C2=O)cc1,0.912
15,"CC/C=C\C/C=C\C/C=C\C/C=C\C/C=C\C/C=C\CCC(=O)O [Docosa-4Z,7Z,10Z,13Z,16Z,19Z-hexaenoic acid]",0.979
16,CCC[C@@H]1C[C@@H](C(=O)N[C@@H]([C@H]2O[C@H](SC)[C@H](O)[C@@H](O)[C@H]2O)[C@@H](C)O)N(C)C1 [Lincomycin hydrochloride],1.02
17,CCC[C@@H]1C[C@@H](C(=O)N[C@@H]([C@H]2O[C@H](SC)[C@H](O)[C@@H](O)[C@H]2O)[C@@H](C)O)N(C)C1 [Lincomycin HCl (Lincocin)],0.874
18,CCN(CC)CCN[C@@H](C(=O)OCCC(C)C)c1ccccc1 [Camylofine chlorhydrate],0.925
19,CN1CCCN=C1/C=C/c1cccs1 [Pyrantel tartrate],0.898
20,CCOC(=O)N1c2ccc(C(F)(F)F)cc2[C@@H](N(Cc2cc(C(F)(F)F)cc(C(F)(F)F)c2)C(=O)OC)C[C@H]1CC,0.982
21,COc1ccc(-c2cc(=O)c3c(OC)c(OC)c(OC)c(OC)c3o2)cc1OC [Nobiletin (Hexamethoxyflavone)],0.99
22,Cc1ccc(S(=O)(=O)OCC(=O)Nc2ccc(C(=O)O)c(O)c2)cc1,1.05
23,C[C@H]1C[C@H]2[C@@H]3CCC4=CC(=O)C=C[C@]4(C)[C@H]3C(=O)C[C@]2(C)[C@@]1(O)C(=O)CO [Betapar (Meprednisone)],1.04
24,CC1(C)O[C@@H]2C[C@H]3[C@@H]4C[C@H](F)C5=CC(=O)CC[C@]5(C)[C@H]4[C@@H](O)C[C@]3(C)[C@]2(C(=O)CO)O1 [Flurandrenolide],0.823
25,CCC(=O)OCC(=O)[C@@]1(OC(=O)CC)[C@@H](C)C[C@H]2[C@@H]3CCC4=CC(=O)C=C[C@]4(C)[C@@]3(F)[C@@H](O)C[C@@]21C [Betamethasone Dipropionate (Diprolene)],0.885
